Record: PubChem BioAssay AID652243 (Drosophila RNAi Screening Center, 2013)

- Test: 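Fly genes required for human androgen receptor driven transcription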 (primary screen)
- System: Drosophila S2R+ cells
- Knock-down reagent: long dsRNA against Drosophila genes
- Timing: 72 h (48 h, then 24 h hormone)
- Conditions: synthetic androgen R1881 at 10 nM for 24 h
- Measured: 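Per-well raw luminescence of the androgen-driven firefly reporter and of the Renilla control, two replicates each, without normalisation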
- Scale: firefly reporter light: higher = more light from androgen-responsive reporter; Renilla control light: higher = more constitutive control signal (cell number, transfection)
- Hit rule: 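Across duplicate plates, a knock-down whose log firefly/Renilla ratio shifted a set fold down or up from the GFP/LacZ control mean was a hit; the downward cut appears as both 1.5 and 3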
- Calls: active = hit: reporter lowered or raised; inactive = no hit
The screen tested about 24,000 reagents; shown is a random part of those that have a named target and a result. Of all reagents, 246 (1%) are marked active. 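Plates not normalised; calls are printed but the firefly/Renilla ratio behind them is not deposited; fold cut for lowering reported inconsistently.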 The raw values are shown without normalisation. The numbers tell different reagents against one gene apart. Reagent sequences are not shown. Not given: the amount of reagent.

Which result is listed for Tim8?
firefly reporter light, replicate 1: 5.61e5; firefly reporter light, replicate 2: 5.36e5; Renilla control light, replicate 1: 3.94e6; Renilla control light, replicate 2: 3.47e6; Outcome: inactive

How did the screen score CG33003 #1?
firefly reporter light, replicate 1: 4.56e5; firefly reporter light, replicate 2: 9.70e5; Renilla control light, replicate 1: 9.57e5; Renilla control light, replicate 2: 1.42e6; Outcome: inactive

Which result is listed for CG33003 #2?
firefly reporter light, replicate 1: 3.66e5; firefly reporter light, replicate 2: 5.02e5; Renilla control light, replicate 1: 3.48e5; Renilla control light, replicate 2: 6.59e5; Outcome: inactive

For CG13933, what does the deposit list?
firefly reporter light, replicate 1: 7.94e5; firefly reporter light, replicate 2: 1.15e6; Renilla control light, replicate 1: 1.92e6; Renilla control light, replicate 2: 1.90e6; Outcome: inactive

What is on record for CG9346?
firefly reporter light, replicate 1: 1.09e6; firefly reporter light, replicate 2: 1.11e6; Renilla control light, replicate 1: 2.37e6; Renilla control light, replicate 2: 2.42e6; Outcome: inactive

What is on record for RnpS1 (RNA-binding protein S1)?
firefly reporter light, replicate 1: 28104; firefly reporter light, replicate 2: 16610; Renilla control light, replicate 1: 3.25e5; Renilla control light, replicate 2: 3.56e5; Outcome: inactive

What is on record for Pu (Punch) #1?
firefly reporter light, replicate 1: 8.17e5; firefly reporter light, replicate 2: 7.09e5; Renilla control light, replicate 1: 1.42e6; Renilla control light, replicate 2: 1.48e6; Outcome: inactive

What is on record for Pu (Punch) #2?
firefly reporter light, replicate 1: 5.36e5; firefly reporter light, replicate 2: 5.40e5; Renilla control light, replicate 1: 1.44e6; Renilla control light, replicate 2: 1.72e6; Outcome: inactive

For mfr (misfire), what was measured?
firefly reporter light, replicate 1: 52382; firefly reporter light, replicate 2: 1.88e5; Renilla control light, replicate 1: 5.08e5; Renilla control light, replicate 2: 1.87e6; Outcome: inactive

What is on record for CG11251?
firefly reporter light, replicate 1: 1.44e5; firefly reporter light, replicate 2: 1.64e5; Renilla control light, replicate 1: 1.47e6; Renilla control light, replicate 2: 1.24e6; Outcome: inactive

What is on record for Nup188 (Nucleoporin 188kDa) #1?
firefly reporter light, replicate 1: 9.04e5; firefly reporter light, replicate 2: 8.53e5; Renilla control light, replicate 1: 3.75e6; Renilla control light, replicate 2: 4.40e6; Outcome: inactive

Which result is listed for Nup188 (Nucleoporin 188kDa) #2?
firefly reporter light, replicate 1: 4.18e5; firefly reporter light, replicate 2: 3.38e5; Renilla control light, replicate 1: 9.11e5; Renilla control light, replicate 2: 9.63e5; Outcome: inactive

With Polr3G (RNA polymerase III subunit G), what does the deposit list?
firefly reporter light, replicate 1: 9.15e5; firefly reporter light, replicate 2: 6.45e5; Renilla control light, replicate 1: 1.18e6; Renilla control light, replicate 2: 1.04e6; Outcome: inactive

How did the screen score Pp1-13C (Protein phosphatase 1 at 13C) #1?
firefly reporter light, replicate 1: 7.55e5; firefly reporter light, replicate 2: 8.34e5; Renilla control light, replicate 1: 2.57e6; Renilla control light, replicate 2: 2.91e6; Outcome: inactive

With Pp1-13C (Protein phosphatase 1 at 13C) #2, what was measured?
firefly reporter light, replicate 1: 5.48e5; firefly reporter light, replicate 2: 6.47e5; Renilla control light, replicate 1: 1.10e6; Renilla control light, replicate 2: 1.12e6; Outcome: inactive

Which result is listed for Pp1-13C (Protein phosphatase 1 at 13C) #3?
firefly reporter light, replicate 1: 2.76e5; firefly reporter light, replicate 2: 1.79e5; Renilla control light, replicate 1: 6.24e5; Renilla control light, replicate 2: 7.99e5; Outcome: inactive

No new results follow: 2 of the entries above.
Polr3G (RNA polymerase III subunit G): firefly reporter light, replicate 1 = 9.15e5; firefly reporter light, replicate 2 = 6.45e5; Renilla control light, replicate 1 = 1.18e6; Renilla control light, replicate 2 = 1.04e6; Outcome = inactive
Pp1-13C (Protein phosphatase 1 at 13C) #1: firefly reporter light, replicate 1 = 7.55e5; firefly reporter light, replicate 2 = 8.34e5; Renilla control light, replicate 1 = 2.57e6; Renilla control light, replicate 2 = 2.91e6; Outcome = inactive
